For one substance, binding results are on record in publication PMC9379403.

Amino acid sequences for entries named in this document (tags omitted). A change or cut given only in a name is not applied to a line headed by its entry.
UniProt P13020: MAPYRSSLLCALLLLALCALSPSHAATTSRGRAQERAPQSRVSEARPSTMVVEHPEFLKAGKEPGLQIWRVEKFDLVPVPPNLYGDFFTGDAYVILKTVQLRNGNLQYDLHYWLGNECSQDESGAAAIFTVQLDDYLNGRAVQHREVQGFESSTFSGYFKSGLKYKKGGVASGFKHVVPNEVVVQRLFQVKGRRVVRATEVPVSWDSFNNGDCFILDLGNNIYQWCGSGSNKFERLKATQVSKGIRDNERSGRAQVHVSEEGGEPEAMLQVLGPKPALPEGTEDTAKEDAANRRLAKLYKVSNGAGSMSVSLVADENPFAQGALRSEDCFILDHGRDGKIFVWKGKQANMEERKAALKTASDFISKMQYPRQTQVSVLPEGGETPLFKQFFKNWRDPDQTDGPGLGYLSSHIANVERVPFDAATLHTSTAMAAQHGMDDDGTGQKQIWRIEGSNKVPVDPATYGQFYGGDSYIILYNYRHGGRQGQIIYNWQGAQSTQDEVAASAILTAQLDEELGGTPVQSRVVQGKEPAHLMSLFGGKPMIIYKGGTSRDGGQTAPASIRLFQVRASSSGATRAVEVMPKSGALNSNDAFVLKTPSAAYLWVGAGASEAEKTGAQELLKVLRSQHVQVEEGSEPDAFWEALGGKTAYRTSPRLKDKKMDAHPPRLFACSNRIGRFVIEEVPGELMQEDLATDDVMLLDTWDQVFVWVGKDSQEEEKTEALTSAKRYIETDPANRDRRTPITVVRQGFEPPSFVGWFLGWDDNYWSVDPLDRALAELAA

No constants are given. Whether binding was seen depends on the method and setting. In cells and extracts the contact can be indirect. For some assays here: Binding can be weak; no strength is given.

Test [1] concerns the target T1, Quaking (QKI) (mouse (endogenous in sperm nuclei)) (UniProt Q9QYS9).
T1 sequence: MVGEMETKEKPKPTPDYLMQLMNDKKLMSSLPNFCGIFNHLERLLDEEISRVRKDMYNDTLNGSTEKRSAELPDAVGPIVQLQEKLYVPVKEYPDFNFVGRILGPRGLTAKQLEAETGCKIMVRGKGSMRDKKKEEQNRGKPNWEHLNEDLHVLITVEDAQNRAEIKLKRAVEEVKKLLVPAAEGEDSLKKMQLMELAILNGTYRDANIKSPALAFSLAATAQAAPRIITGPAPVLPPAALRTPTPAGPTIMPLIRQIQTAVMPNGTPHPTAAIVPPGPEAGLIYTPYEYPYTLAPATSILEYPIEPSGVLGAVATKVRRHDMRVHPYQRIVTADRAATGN
Briefly: co-IP; protein fraction of the RIP assay: lysate of SRN (RIP lysis buffer: 50 mM Tris-HCl pH 7.4, 150 mM NaCl, 5 mM EDTA, 1% NP-40, 0.1% SDS, with RNase inhibitors) incubated with QKI Ab or IgG at 4°C overnight, Protein A/G agarose beads, western blot for Gelsolin; caput SRN of WT and CB1-/- mice and cauda SRN of CB1-/- mice. A general note: Immunoblotting shows a protein as a band on a membrane.

The target in test [2] is T1, Quaking (QKI) (mouse (endogenous in sperm nuclei)). Nature of the test: co-IP; same RIP protein fraction (QKI Ab, Protein A/G agarose beads, western blot for Gelsolin), cauda SRN of WT mice.

With Gelsolin (from UniProt P13020), the binding result in test [1] is “binds”; in test [2], “no binding (only in cauda SRN of WT mice)”.
